Publication PMC7819943, “Rice protein-binding microarrays: a tool to detect cis-acting elements near promoter regions in rice”
The list shows a part of the results.

The chains behind the UniProt entries cited, without tags or fusion partners.
UniProt Q0JBA9, entry or part of it: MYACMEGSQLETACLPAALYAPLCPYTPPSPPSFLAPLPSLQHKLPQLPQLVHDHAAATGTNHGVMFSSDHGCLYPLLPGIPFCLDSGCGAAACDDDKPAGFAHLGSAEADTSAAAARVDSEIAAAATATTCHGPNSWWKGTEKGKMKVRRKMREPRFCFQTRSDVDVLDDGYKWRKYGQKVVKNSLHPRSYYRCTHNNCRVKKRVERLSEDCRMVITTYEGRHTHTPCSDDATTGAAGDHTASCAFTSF

target: OsWRKY34 (Oryza sativa, UniProt Q0JBA9 1-250); assay: protein-binding microarray (RPBM); PBS, 2% BSA, 51.3 ng/ul salmon testes DNA, 50 uM zinc acetate, 200 nM TF, 25 C, 1 h; high values mean tight binding; conditions: protein: recombinant; tags: N-terminal polyhistidine and DsRed monomer fusion (pET32a); label: CyDye5-dUTP incorporated in the synthesized complementary strand; 3' TTTTT single-stranded linker to array surface; dsDNA, one strand shown
Summary of the method: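 The binding signal for each feature is its fluorescence intensity in arbitrary units. An Axon 4000B scanner was used to read a custom Agilent array that had been made double-stranded with Cy5-dUTP primer extension, blocked with 2% BSA, incubated at 25 °C for 1 h with 200 nM protein in PBS, 2% BSA, salmon testes DNA and 50 µM zinc acetate, and washed. The protein was an N-terminal polyhistidine–DsRed transcription factor fusion from E. coli BL21-CodonPlus, purified on Ni–NTA.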

Sequence | binding signal
TTACCTTAGATTTGGTAGGGCTGGTTAGGGCTGGTTGGAGCGGAGTCACCTAGTGCAG | 8680 fluorescence intensity (a.u.)
CCCTGATTATTTTTTTTTCCCAAATCCAAAAAGGCTAGATCGGAGTCACCTAGTGCAG | 8410 fluorescence intensity (a.u.)
CTTCGCCTCATTCATATCCCTGTACTTCCGATGACACGTCCGGAGTCACCTAGTGCAG | 12200 fluorescence intensity (a.u.)
CCTGATCCTCCTGCCACCGCGGCCGCAGCAGCAGCAGCAGCGGAGTCACCTAGTGCAG | 8300 fluorescence intensity (a.u.)
ACATATTATTGTGTATTATTGTGTAGTATTCCTTCCGTTGCGGAGTCACCTAGTGCAG | 8380 fluorescence intensity (a.u.)
GCCGCCTCTTCCTTTTTTTCACCAGCGGCGGCGTCCGAATCGGAGTCACCTAGTGCAG | 8650 fluorescence intensity (a.u.)
TATAGATTTTTAGAGTTATATCACAGTCTCATCAGCTCTTCGGAGTCACCTAGTGCAG | 8610 fluorescence intensity (a.u.)
TAAACCACTGCCACTATTGTGCATTTCATTTGATTTAACACGGAGTCACCTAGTGCAG | 9040 fluorescence intensity (a.u.)
ATAATAGGGTTATTCATAATATGGCAGGGTTTTTGGTTAGCGGAGTCACCTAGTGCAG | 10300 fluorescence intensity (a.u.)
TTAAAACTCTCGAATTGACTCGCCGCCATTGTTGCTCCTCCGGAGTCACCTAGTGCAG | 8570 fluorescence intensity (a.u.)
GGACCCACTCCGTTTCATAGTTTTTGACTTCTTTTACTGGCGGAGTCACCTAGTGCAG | 8270 fluorescence intensity (a.u.)
GCTGTTCCCGTCGCTGGGCGTCGGCCACCTGAACCCCATGCGGAGTCACCTAGTGCAG | 8420 fluorescence intensity (a.u.)
ATGTATGGCTGTAAGGGTATTTTTGGTATTTTTTTAAAAACGGAGTCACCTAGTGCAG | 8750 fluorescence intensity (a.u.)
TCTTTGCCATTTCGTTTACAGATAGCACTCATTATTATCTCGGAGTCACCTAGTGCAG | 8200 fluorescence intensity (a.u.)
GGACGTTGTGGGAGAGGATTTCGTTTTTTTGTGGGTCCTCCGGAGTCACCTAGTGCAG | 11300 fluorescence intensity (a.u.)
TGCCACTGTTCTATCTTCGTCGTCAAGCTCCATGACCGCCCGGAGTCACCTAGTGCAG | 8060 fluorescence intensity (a.u.)
CGCCCGGCCGCCTACCCTCCCGGATACGTCGGAGGGGAGGCGGAGTCACCTAGTGCAG | 9480 fluorescence intensity (a.u.)
CTCTCTCTCTCACTAGCTAATTAGCTGCTACTACATCTTCCGGAGTCACCTAGTGCAG | 8960 fluorescence intensity (a.u.)
CGACGCCATCCACAACACCTGAGCTGAGGCCGCCGCCGCGCGGAGTCACCTAGTGCAG | 8460 fluorescence intensity (a.u.)
CGAGGAGGAAGCGGAGGGTGGGGAGCGGGTGGGAGTGGCCCGGAGTCACCTAGTGCAG | 10600 fluorescence intensity (a.u.)
ACTTGCACACGGTAATTGACCAAACTCGCTCTATATATATCGGAGTCACCTAGTGCAG | 10400 fluorescence intensity (a.u.)

Sequence | binding signal
ACCACTCCAAACTCCACTCGCTGAACTAGCTCTCACATCTCGGAGTCACCTAGTGCAG | 9670 fluorescence intensity (a.u.)
CGATCATCCATGTTACACTGAAGTTTGAACCTGACGAGACCGGAGTCACCTAGTGCAG | 8630 fluorescence intensity (a.u.)
TGGTGACTTTGTCAATCTTCAGGATTTACCGGCTCAGTCTCGGAGTCACCTAGTGCAG | 8400 fluorescence intensity (a.u.)
TGCCGGAGCTCGCCTGCTCCACCGTCCACCCGCGCCGTCCCGGAGTCACCTAGTGCAG | 8130 fluorescence intensity (a.u.)
AAGATAAGTTACTCGTGTTCTTTGCAATTCTCTCGTTTAACGGAGTCACCTAGTGCAG | 8510 fluorescence intensity (a.u.)
TCCTTTGACCAAATCCGAAACTACCAATGTCATGTTCACCCGGAGTCACCTAGTGCAG | 9340 fluorescence intensity (a.u.)
CCAAAATCCCCTCGTCGTCCCGTCGCGCGCGGCCGCTTCCCGGAGTCACCTAGTGCAG | 8990 fluorescence intensity (a.u.)
ATCCCCACCATCTCTCGTGGGGCAGCACACACTGCACGAACGGAGTCACCTAGTGCAG | 8070 fluorescence intensity (a.u.)
TTTCCGTACTAAATTTTGTTCATTCGTTTTATTTATTTTTCGGAGTCACCTAGTGCAG | 17100 fluorescence intensity (a.u.)
ATATGGACTCCATACTCTACTTCTAATATTCCTTATTTTTCGGAGTCACCTAGTGCAG | 8270 fluorescence intensity (a.u.)
ACTTACGACAACCCGCCATGTCTTTTTTCCCGCCATAAGTCGGAGTCACCTAGTGCAG | 9810 fluorescence intensity (a.u.)
CCGGCGCGCGTCGCGGGTTGCTGTTCGTTTGCTGGATCCTCGGAGTCACCTAGTGCAG | 11800 fluorescence intensity (a.u.)
ACCTACCCATTTGACCGTACCCCAAAACAACCGAGAAATTCGGAGTCACCTAGTGCAG | 9620 fluorescence intensity (a.u.)
CACCACACCACATTTCTCTCTCTAGATTTCTCTCTCTCTCCGGAGTCACCTAGTGCAG | 12200 fluorescence intensity (a.u.)
GGCGCACCGTCACGAACCGCATCGGTCCAGCGAGCTATCACGGAGTCACCTAGTGCAG | 8210 fluorescence intensity (a.u.)
CCCCACACCACCACCGCGCGCCCGCATTTCTCCCCGCTCCCGGAGTCACCTAGTGCAG | 12200 fluorescence intensity (a.u.)
TGTCAGCAGCTGTTGCCGTTTGTACCCATGCCGGGTCACGCGGAGTCACCTAGTGCAG | 9270 fluorescence intensity (a.u.)
CACCTCTGCCGCTGCTCCAAATCGTGTCACTGCTCCTCACCGGAGTCACCTAGTGCAG | 8650 fluorescence intensity (a.u.)
CTATCCTTTTTTTCTTTTTTGGAAAATTGCAACCAAATCACGGAGTCACCTAGTGCAG | 9240 fluorescence intensity (a.u.)
GTTTAGTTGATTTCAGGGCCAGTTCTTGTGGGGTTTTCAACGGAGTCACCTAGTGCAG | 8490 fluorescence intensity (a.u.)
GCGCCGGCGCCGACCCCGTCCTGCCCCACCCGCCGCTGCACGGAGTCACCTAGTGCAG | 8230 fluorescence intensity (a.u.)

Sequence | binding signal
CGATTGTTTGTAGTGATTATTAGTGCATGTGAAAGCCATGCGGAGTCACCTAGTGCAG | 8280 fluorescence intensity (a.u.)
TTGATTTCTTTTGCGAGCAGCGTACCCACCGCCGGCGATGCGGAGTCACCTAGTGCAG | 16200 fluorescence intensity (a.u.)
CCTTGGGTTGGCGACATCTCCACCGTACCTCGCCATATCGCGGAGTCACCTAGTGCAG | 8330 fluorescence intensity (a.u.)
AGGCCTCATCTTCTACTCCCACCGTCCCATAAAAACCAACCGGAGTCACCTAGTGCAG | 9570 fluorescence intensity (a.u.)
TCAACTGATTTTCTTTCTTTTACAATCAACTGATTTTCTTCGGAGTCACCTAGTGCAG | 8720 fluorescence intensity (a.u.)
ATTCTACCTCGTTAACCATAGATCCAAACTCTTAACCTCCCGGAGTCACCTAGTGCAG | 8450 fluorescence intensity (a.u.)
GTATGCTGACTTTTTTTTAGGTAAGTGTAAACGGATTATGCGGAGTCACCTAGTGCAG | 8400 fluorescence intensity (a.u.)
CAGTGCGTATTTGCAATATATATATATAGGAAAGTTTCTTCGGAGTCACCTAGTGCAG | 9390 fluorescence intensity (a.u.)
TTACATGCATATTTGATTTTTTTTCTAGAAATTTTGTCTCCGGAGTCACCTAGTGCAG | 8300 fluorescence intensity (a.u.)
CCCGAATCCAACCAATCCCCGCGCCGATTCCCGCCATTTCCGGAGTCACCTAGTGCAG | 8590 fluorescence intensity (a.u.)
CTGCCCGCAACAAATAATGGAATAACTCTATACTTCTCTTCGGAGTCACCTAGTGCAG | 8450 fluorescence intensity (a.u.)
GCATACAGAGTTCCAGAAATTTCCGACTGGTCATCTCATCCGGAGTCACCTAGTGCAG | 9680 fluorescence intensity (a.u.)
GGAATTTGGTCGAGCCGTGTTGTTGGGTTGACCTAGGTGGCGGAGTCACCTAGTGCAG | 10400 fluorescence intensity (a.u.)
CGCGTTTTGCTATCATCTGTTTTACACTTACATTCCTATTCGGAGTCACCTAGTGCAG | 8890 fluorescence intensity (a.u.)
GTTTTTCGTTTTGTCGCCCTTTTTTATTGGACAGTTTGGTCGGAGTCACCTAGTGCAG | 11900 fluorescence intensity (a.u.)
TGATTGTGTTTGTAGACTTGGTTGGTATTGTTGAACGGATCGGAGTCACCTAGTGCAG | 11800 fluorescence intensity (a.u.)
TCTCTTCCGCCACCCACCAATAGATTCACGTTTATAGTCCCGGAGTCACCTAGTGCAG | 8210 fluorescence intensity (a.u.)
TGCTGAAACTTGCAACTGCTATCATGATGTTATGTTACCCCGGAGTCACCTAGTGCAG | 9900 fluorescence intensity (a.u.)
ACCCTTATCATTCGGTTTACGGATATCCCCAGTCGATATACGGAGTCACCTAGTGCAG | 8030 fluorescence intensity (a.u.)
TCCCAGTTAGCATCGATCAACACTTGCATGCAGCTGCTACCGGAGTCACCTAGTGCAG | 8170 fluorescence intensity (a.u.)
GACTAGCATTTTCCGGAAACGACCGCGTCGACTTTATCCACGGAGTCACCTAGTGCAG | 8020 fluorescence intensity (a.u.)

Sequence | binding signal
GGATGGCGACCTGTAGCCCGTCTTTTGTTTTCGCTTCGCTCGGAGTCACCTAGTGCAG | 10000 fluorescence intensity (a.u.)
ATCGCCATCATCCACTGTTCATCCACTCCATCTCTCTCTCCGGAGTCACCTAGTGCAG | 12400 fluorescence intensity (a.u.)
TCTCGATTGCTCTTCCCCTGCCTTTGCGGCGCCGCCGGGTCGGAGTCACCTAGTGCAG | 8480 fluorescence intensity (a.u.)
TACCACTCGTGACGTCACGCCCACTTTACTTTCGCGTAACCGGAGTCACCTAGTGCAG | 12900 fluorescence intensity (a.u.)
AGCATGATAATCTCTCTCCACATTTTCTACTCGTGCCATACGGAGTCACCTAGTGCAG | 8410 fluorescence intensity (a.u.)
CGCCCGCCACCATCCTTCTCTCTTCCGGTGAACTCATGCACGGAGTCACCTAGTGCAG | 9070 fluorescence intensity (a.u.)
CATCTGCACGCATATATATCTGTAAACTCAGCGCGTTTTTCGGAGTCACCTAGTGCAG | 8100 fluorescence intensity (a.u.)
AGAGAGTGGCTGAGGTGAGCTGTGTAGGGTGGGGTTTCCGCGGAGTCACCTAGTGCAG | 10300 fluorescence intensity (a.u.)
AGCATCCGAATCCGGCCACCTCATCATCTCGCCTCGCTTCCGGAGTCACCTAGTGCAG | 16900 fluorescence intensity (a.u.)
TTAATCGTCCACACGTCACTCTCCTTTGATCCGAAGCTCACGGAGTCACCTAGTGCAG | 8210 fluorescence intensity (a.u.)
GAGCTAACCCATTCTCCTCTCGTCTCCGCGGCATCTGACACGGAGTCACCTAGTGCAG | 8320 fluorescence intensity (a.u.)
TAGGCTGGTGTTGATGTTCTTTGATTCGGTATAAATCAATCGGAGTCACCTAGTGCAG | 8830 fluorescence intensity (a.u.)
ACTCTACCTGCTTACTGCCTTACTCGATCCAGACAGTTCACGGAGTCACCTAGTGCAG | 8900 fluorescence intensity (a.u.)
TTGGGTGGAGTTACTGTGTTTATTGCTTTCCTTGCAAGCTCGGAGTCACCTAGTGCAG | 8290 fluorescence intensity (a.u.)
CGCTTCCACATGCTGCACCGAAACCTCTCATGTTCATCTCCGGAGTCACCTAGTGCAG | 14400 fluorescence intensity (a.u.)
CCACCGGCTGCAGATTCCACCTGCTCATCGTCGCTTCTTCCGGAGTCACCTAGTGCAG | 8930 fluorescence intensity (a.u.)
CCTTCGCTTCCGCTGCTCATTTTACTGCCTTGCTCTCGCGCGGAGTCACCTAGTGCAG | 8760 fluorescence intensity (a.u.)
TCACCACCTCTTGTTCGGTTCTTCCCCATCAGGCCATCACCGGAGTCACCTAGTGCAG | 9000 fluorescence intensity (a.u.)
ACACCTTAATTTTCTGGCCGTCGTGATCTGTATCGCTCTTCGGAGTCACCTAGTGCAG | 11100 fluorescence intensity (a.u.)
TGGTTTGGTTTTCCCGCTCAGCGCTTTGAAAAATTTGGGGCGGAGTCACCTAGTGCAG | 14100 fluorescence intensity (a.u.)
TTTCAGATTTGATGCATTGCCTGTTTTTACCTACCTTTTACGGAGTCACCTAGTGCAG | 13100 fluorescence intensity (a.u.)

For reference, some entries already given:
Sequence | binding signal
AGGCCTCATCTTCTACTCCCACCGTCCCATAAAAACCAACCGGAGTCACCTAGTGCAG | 9570 fluorescence intensity (a.u.)
TCAACTGATTTTCTTTCTTTTACAATCAACTGATTTTCTTCGGAGTCACCTAGTGCAG | 8720 fluorescence intensity (a.u.)

4 entries from above, as tab-separated lines.
Sequence	binding signal
CCCTGATTATTTTTTTTTCCCAAATCCAAAAAGGCTAGATCGGAGTCACCTAGTGCAG	8410 fluorescence intensity (a.u.)
TCCTTTGACCAAATCCGAAACTACCAATGTCATGTTCACCCGGAGTCACCTAGTGCAG	9340 fluorescence intensity (a.u.)
ATATGGACTCCATACTCTACTTCTAATATTCCTTATTTTTCGGAGTCACCTAGTGCAG	8270 fluorescence intensity (a.u.)
AGCATCCGAATCCGGCCACCTCATCATCTCGCCTCGCTTCCGGAGTCACCTAGTGCAG	16900 fluorescence intensity (a.u.)
